Experimental data taken from PMC11733250.
No constants are given. Whether binding was seen depends on the method and setting. Some results given as binding are weak or reduced against the parent protein; the word gives no strength.

What was measured:
Settings in all cases: remark: other sources report otherwise
[1] = target: T1, p23 wild-type (human co-chaperone p23, 160 amino acids) (human), Q15185; assay: NMR titration; competition: 1H-15N TROSY HSQC of 15N-labeled p23 (30 µM) with unlabeled FKBP51 (60 µM); MEEVD peptide added at ten-, twenty-, thirty-fold molar excess; 25 mM HEPES, 10 mM KCl, 5 mM MgCl2, 1 mM DTT, pH 7.2, 303 K; both purified
T1 chain: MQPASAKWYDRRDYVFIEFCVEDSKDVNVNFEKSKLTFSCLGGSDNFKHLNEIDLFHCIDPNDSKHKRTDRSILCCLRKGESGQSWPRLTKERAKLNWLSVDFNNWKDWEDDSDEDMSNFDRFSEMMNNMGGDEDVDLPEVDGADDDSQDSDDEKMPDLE

[2] = target: T1, p23 wild-type (human co-chaperone p23, …); assay: NMR titration; 1H-15N TROSY HSQC of deuterated 15N-labeled p23 (WT 40 µM, 1-119 25 µM, R88A R93A 40 µM); unlabeled FKBP51 added at equimolar to three-fold or five-fold molar excess; 25 mM HEPES, 10 mM KCl, 5 mM MgCl2, 1 mM DTT, pH 7.2, 303 K; both purified
FKBP51, Q13451 [3] = target: T2, FKBP51, Q13451; assay: SEC-SAXS; 150 µM FKBP51 without or with equimolar p23, Shodex KW403-4F column; both purified
T2 chain: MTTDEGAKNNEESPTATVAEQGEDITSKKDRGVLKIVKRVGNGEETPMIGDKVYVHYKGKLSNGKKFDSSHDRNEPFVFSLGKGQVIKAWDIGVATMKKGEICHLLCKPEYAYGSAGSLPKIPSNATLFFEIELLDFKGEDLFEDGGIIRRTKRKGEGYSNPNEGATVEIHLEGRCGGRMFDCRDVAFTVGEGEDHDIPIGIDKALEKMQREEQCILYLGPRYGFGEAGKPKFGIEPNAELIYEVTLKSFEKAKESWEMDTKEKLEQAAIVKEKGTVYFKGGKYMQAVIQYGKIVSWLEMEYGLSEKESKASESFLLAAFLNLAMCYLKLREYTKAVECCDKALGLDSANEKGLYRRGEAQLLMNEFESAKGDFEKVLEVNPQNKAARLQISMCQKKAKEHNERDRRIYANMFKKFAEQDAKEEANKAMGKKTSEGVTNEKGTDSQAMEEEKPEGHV

FKBP51, Q13451 [4] = target: T2, FKBP51, Q13451; assay: cross-linking; p23:FKBP51:tau 1:1:1 (25 µM each), 1 mM DSS, 30 min at 25 °C; SDS-PAGE band above 220 kDa cut out, trypsin digest, mass spectrometry (pLink); both purified
FKBP51, Q13451 [5] = target: T2, FKBP51, Q13451; assay: NMR titration; 1H-13C HMQC/methyl-TROSY of 13C-methyl (Leu, Val) labeled FKBP51 (50 µM); unlabeled p23 (two-, five-, ten-fold) or MEEVD peptide (five-, fifteen-fold) added; 25 mM HEPES, 10 mM KCl, 5 mM MgCl2, 1 mM DTT, pH 7.6, 100% D2O, 308 K; both purified

B1: FKBP51, Q13451 1-457 (protein)
chain: T2 chain
For B1, the binding [1] was “binds” and the binding [2] was “binds”.

B2: p23 wild-type (human co-chaperone p23, 160 amino acids), Q15185 1-160 (natural protein)
chain: T1 chain
With B2 the binding (FKBP51, Q13451 [3]) was “binds”, the binding (FKBP51, Q13451 [4]) was “binds” and the binding (FKBP51, Q13451 [5]) was “binds”.
